Measured values: paper PMC11440508 (Journal of Medicinal Chemistry, 2024)

Tests used:
[1] = general procedure: Fmoc solid-phase peptide synthesis; H-Leu-2-ClTrt resin; HBTU/HOBt/DIPEA; settings: for final HPLC purity: 220 nm; for step yield: late stage modification step
[2] = general procedure: Fmoc solid-phase peptide synthesis; H-Leu-2-ClTrt; HBTU/HOBt/DIPEA; settings: whole synthesis, 0.79 mmol/g, TFA salt
[3] = conjugation step, TFA salt (hydrotrifluoroacetate)
[4] = TFA salt (hydrotrifluoroacetate)
[5] = whole synthesis, TFA salt (hydrotrifluoroacetate)

Substance: PEPTIDE1{[TAMRAtrzPrp].[pipGly].P.[Arg(carbPrp)].R.P.Y.I.L}$$$$V2.0
- final HPLC purity [1, 3]: 99%
- conjugation yield [1, 3]: 77%
- conjugation yield ([1]; conjugation step, overall from precursor 6 (propionylation + click), TFA salt (hydrotrifluoroacetate)): 35%
- step yield [1, 4]: 45%

Substance: Pent4ynoyl-[Gly(piperidin-4-yl)]P[X4]RP[dTyr(β,β-Me2)]IL-OH
- isolated mass ([2]; scale 130 mg resin): 37.2 mg
- final HPLC purity [1, 5]: 98%
- isolated yield [1, 5]: 21%

Substance: PEPTIDE1{[Pent4ynoyl].K.P.R.R.P.Y.I.L}$$$$V2.0
- isolated mass ([2]; scale 60 mg resin): 26.1 mg
- final HPLC purity [1, 5]: >99%
- isolated yield [1, 5]: 38%

Substance: PEPTIDE1{[Pent4ynoyl].[dK].P.R.R.P.Y.I.L}$$$$V2.0
- isolated mass ([2]; scale 60 mg resin): 7.1 mg
- final HPLC purity [1, 5]: 99%
- isolated yield [1, 5]: 10%

Substance: PEPTIDE1{[GAB].[Pra].[pipGly].P.R.R.P.Y.I.L}$$$$V2.0
- isolated mass ([2]; scale 60 mg resin): 16.1 mg
- final HPLC purity [1, 5]: 98%
- isolated yield [1, 5]: 20%

Substance: N^α-(Pent-4-ynoyl)-2-(piperidin-4-yl)-Gly-Pro-N^ω-[(4-aminobutyl)aminocarbonyl]Arg-Arg-Pro-β,β-dimethyl-L-Tyr-Ile-Leu Tetrakis(hydrotrifluoroacetate)
- isolated mass ([2]; scale 130 mg resin): 60.3 mg
- final HPLC purity [1, 5]: 97%
- isolated yield [1, 5]: 34%

Substance: N^α-(3-(1-N-((1-Carboxy-2-(6-(dimethylamino)-3-(dimethyliminio)-3H-xanthen-9-yl)phen-5-yl)1-oxomethyl)aminoprop-3-yl-1H-1,2,3-triazol-4-yl)propanoyl)-2-(piperidin-4-yl)-Gly-Pro-N^ω-[(4-aminobutyl)aminocarbonyl]Arg-Arg-Pro-Tyr-Ile-Leu
- final HPLC purity [1, 3]: 97%
- conjugation yield [1, 3]: 61%

Substance: N^α-(3-(1-N-((1-Carboxylato-2-(6-(dimethylamino)-3-(dimethyliminio)-3H-xanthen-9-yl)phen-5-yl)1-oxomethyl)aminoprop-3-yl-1H-1,2,3-triazol-4-yl)propanoyl)-N^ω-(propanoyl)-D-Lys-Pro-Arg-Arg-Pro-Tyr-Ile-Leu Bis(hydrotrifluoroacetate)
- final HPLC purity [1, 3]: >99%
- conjugation yield [1, 3]: 61%
- conjugation yield ([1]; conjugation step, overall from precursor 8, TFA salt (hydrotrifluoroacetate)): 43%
- step yield [1, 4]: 71%

Substance: PEPTIDE1{[Pent4ynoyl].[pipGly].P.[Arg(carb)].R.P.Y.I.L}$$$$V2.0
- isolated mass ([2]; scale 60 mg resin): 8.8 mg
- final HPLC purity [1, 5]: >99%
- isolated yield [1, 5]: 11%

Substance: PEPTIDE1{[Cy3B-trz-propanoyl].[pipGly].P.[Arg(carbPr)].R.P.[bbMe2Tyr].I.L}$$$$V2.0
- final HPLC purity [1, 3]: >99%
- conjugation yield [1, 3]: 39%
- conjugation yield ([1]; conjugation step, overall from precursor 10a, TFA salt (hydrotrifluoroacetate)): 15%
- step yield [1, 4]: 38%

Substance: N^α-(3-(N-(1-(8-Sulfonato-5,5,27,27-tetramethyl-16-oxa-20-aza-12-azoniaheptacyclo[15.11.0.03,15.04,12.06,11.020,28.021,26]octacosa-1(28),2,4(12),6(11),7,9,21(26),22,24-nonaen-24-yl)-5-oxopentyn-5-yl)-1-aminoprop-3-yl-1H-1,2,3-triazol-4-yl)propanoyl)-2-(piperidin-4-yl)-Gly-Pro-N^ω-[(4-aminobutyl)aminocarbonyl]Arg-Arg-Pro-β,β-dimethyl-L-Tyr-Ile-Leu-OH Tetrakis(hydrotrifluoroacetate)
- final HPLC purity [1, 3]: 99%
- conjugation yield [1, 3]: 34%

Substance: X1-[X2]K(Propionyl)PRRPYIL-OH
- final HPLC purity [1, 3]: >99%
- conjugation yield [1, 3]: 99%
- conjugation yield ([1]; conjugation step, overall from precursor 7, TFA salt (hydrotrifluoroacetate)): 48%
- step yield [1, 4]: 49%

Substance: PEPTIDE1{[Prp].[GAB].[Pra(trzTAMRA)].[pipGly].P.R.R.P.Y.I.L}$$$$V2.0
- final HPLC purity [1, 3]: >99%
- conjugation yield [1, 3]: 40%
- conjugation yield ([1]; conjugation step, overall from precursor 9, TFA salt (hydrotrifluoroacetate)): 12%
- step yield [1, 4]: 31%

Strings that start with PEPTIDE1 are HELM notation: dots part the residues, brackets hold end groups and non-standard residues. Starred links: 1 amine or outer side, 2 acyl side, 3 side chain; linkers in the order of their positions; H or OH if unused. Non-standard residues stand in square brackets, D forms with d. *: point of attachment. X1 = CN(C)c1ccc2c(-c3ccc(C(=O)*)cc3C(=O)[O-])c3ccc(=[N+](C)C)cc-3oc2c1; X4 = NCCCCNC(=O)N=C(N)NCCC[C@H](N[*:1])C(=O)[*:2]; dTyr(β,β-Me2) = CC(C)(c1ccc(O)cc1)[C@@H](N)C(=O)O; Gly(piperidin-4-yl) = N[C@H](C(=O)O)C1CCNCC1; X2 = O=C(CCc1cn(CCCN[*:1])nn1)[*:2]; Pent4ynoyl = C#CCCC(=O)*; Propionyl = CCC(=O)*
